Values from PubChem BioAssay AID1053208 (Peter MacCallum Cancer Centre, 2014).
In all, the deposit lists about 17,000 reagents; this is a random part of them. In the full data, 788 (4.7%) got an active call. 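Calls rest on z-score classes alone; an extra cut-off of viability at most 70% of control was not applied to them.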 Not all columns of the deposit are shown. No sequences are given here.

- Assay: 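Genes whose silencing cuts survival of bone tumour cells only with doxorubicin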 (primary screen)
- Cell system: mouse osteosarcoma cells, early-passage culture from an engineered mouse model of fibroblastic bone tumour
- Reagent: siRNA pool against mouse genes, 40 nM
- Time to read-out: about 120 h (48 h before drug, then 72 h with drug)
- Treatment: doxorubicin 100 nM for 72 h, roughly 30-40% inhibitory dose
- Detection: 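Viability read as ATP luminescence after 72 h of 100 nM doxorubicin or none, duplicate wells averaged, scaled to non-targeting siRNA, then expressed as robust z-scores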
- Reading the numbers: viability z-score with doxorubicin: higher = more viable cells under doxorubicin; viability z-score without drug: higher = more viable cells with knock-down alone
- Call rule: 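Called active if knock-down leaves viability unchanged without drug (z within -2 to 2) but lowers it with doxorubicin (z at or under -2)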

For Cox7a2l, the entry reads combined z-score class no change with or without drug; viability z-score with doxorubicin -0.56; viability z-score without drug -1.85; inactive. Rps17 scored combined z-score class low cell count with and without drug; viability z-score with doxorubicin -5.06; viability z-score without drug -3.54; inactive. Anapc16 gave combined z-score class no change with or without drug; viability z-score with doxorubicin 0.79; viability z-score without drug 0.34; inactive. For Cox4i1, the values are combined z-score class no change with or without drug; viability z-score with doxorubicin -0.67; viability z-score without drug 0.67; inactive. Acp7 showed combined z-score class no change with or without drug; viability z-score with doxorubicin -0.67; viability z-score without drug -0.51; inactive. Depletion of Dlg5 resulted in: combined z-score class no change with or without drug; viability z-score with doxorubicin 0.9; viability z-score without drug 0.51; inactive.

Against Mrpl12 the deposit lists combined z-score class no change with or without drug; viability z-score with doxorubicin -0.79; viability z-score without drug -1.52; inactive. Knock-down of Ntn3 gave: combined z-score class no change with or without drug; viability z-score with doxorubicin 0; viability z-score without drug -0.84; inactive. Depletion of Mrps34 came out at: combined z-score class no change with or without drug; viability z-score with doxorubicin -1.57; viability z-score without drug -0.51; inactive. Tgif2lx1 scored combined z-score class no change with or without drug; viability z-score with doxorubicin -1.69; viability z-score without drug -1.52; inactive. Knock-down of Tmem94 came out at: combined z-score class low cell count without drug only; viability z-score with doxorubicin -1.57; viability z-score without drug -3.71; inactive. With knock-down of Hvcn1 the results were combined z-score class no change with or without drug; viability z-score with doxorubicin 1.8; viability z-score without drug 1.52; inactive.

After knock-down of Sesn1, the screen gave combined z-score class no change with or without drug; viability z-score with doxorubicin 0.9; viability z-score without drug 1.52; inactive. Knock-down of Pf4 came out at: combined z-score class no change with or without drug; viability z-score with doxorubicin 0.79; viability z-score without drug -0.51; inactive. After knock-down of Dusp14, the screen gave combined z-score class no change with or without drug; viability z-score with doxorubicin 0.79; viability z-score without drug 0.84; inactive. Against Elp3, the entry reads combined z-score class high cell count without drug only; viability z-score with doxorubicin 0.56; viability z-score without drug 2.53; inactive. L2hgdh showed combined z-score class no change with or without drug; viability z-score with doxorubicin -0.11; viability z-score without drug -0.84; inactive. With knock-down of Or6n2, the record shows combined z-score class no change with or without drug; viability z-score with doxorubicin 0.56; viability z-score without drug -0.17; inactive.

Depletion of Ppp3ca gave: combined z-score class no change with or without drug; viability z-score with doxorubicin 1.01; viability z-score without drug -0.51; inactive.

Reformatted: entries from further up.
Tmem94
- combined z-score class: low cell count without drug only
- viability z-score with doxorubicin: -1.57
- viability z-score without drug: -3.71
- outcome: inactive

Hvcn1
- combined z-score class: no change with or without drug
- viability z-score with doxorubicin: 1.8
- viability z-score without drug: 1.52
- outcome: inactive

Sesn1
- combined z-score class: no change with or without drug
- viability z-score with doxorubicin: 0.9
- viability z-score without drug: 1.52
- outcome: inactive
